Experimental data from paper PMC8822347, “Sustained Control of Pyruvate Carboxylase by the Essential Second Messenger Cyclic di-AMP in Bacillus subtilis” (mBio, 2022).
No constants are given. Whether binding was seen depends on the method and setting. Binding seen in cells or lysates may run through a third protein. Some binding calls cover weakened binding; strength is not graded here. Tags and fused reporters may be left off the sequences shown.

Columns and labels:
[1] = biological target: T1, His-tagged YlxR (negative-control bait on Ni-NTA column) (B. subtilis) (UniProt P32728); assay: pull-down; His-tagged DarB or His-tagged YlxR bound to a Ni-NTA column; cell extract of B. subtilis expressing Strep-tagged PC (pGP1289) passed over; Western blot against His and Strep tags; only the target purified
T1 sequence: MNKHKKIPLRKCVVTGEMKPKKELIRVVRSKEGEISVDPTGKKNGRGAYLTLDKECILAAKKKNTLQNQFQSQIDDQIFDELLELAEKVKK

[2] = biological target: T2, His-tagged DarB (bait on Ni-NTA column) (B. subtilis) (UniProt O31698); assay: as above
T2 sequence: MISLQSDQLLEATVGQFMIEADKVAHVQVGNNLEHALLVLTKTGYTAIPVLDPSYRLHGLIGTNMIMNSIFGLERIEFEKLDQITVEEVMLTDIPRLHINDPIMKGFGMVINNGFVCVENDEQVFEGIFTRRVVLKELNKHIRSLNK

B1: Strep-tagged PC (pyruvate carboxylase) (enzyme, UniProt Q9KWU4 1-1148)
chain: MSQQSIQKVLVANRGEIAIRIFRACTELNIRTVAVYSKEDSGSYHRYKADEAYLVGEGKKPIDAYLDIEGIIDIAKRNKVDAIHPGYGFLSENIHFARRCEEEGIVFIGPKSEHLDMFGDKVKAREQAEKAGIPVIPGSDGPAETLEAVEQFGQANGYPIIIKASLGGGGRGMRIVRSESEVKEAYERAKSEAKAAFGNDEVYVEKLIENPKHIEVQVIGDKQGNVVHLFERDCSVQRRHQKVIEVAPSVSLSPELRDQICEAAVALAKNVNYINAGTVEFLVANNEFYFIEVNPRVQVEHTITEMITGVDIVQTQILVAQGHSLHSKKVNIPEQKDIFTIGYAIQSRVTTEDPQNDFMPDTGKIMAYRSGGGFGVRLDTGNSFQGAVITPYYDSLLVKLSTWALTFEQAAAKMVRNLQEFRIRGIKTNIPFLENVAKHEKFLTGQYDTSFIDTTPELFNFPKQKDRGTKMLTYIGNVTVNGFPGIGKKEKPAFDKPLGVKVDVDQQPARGTKQILDEKGAEGLANWVKEQKSVLLTDTTFRDAHQSLLATRIRSHDLKKIANPTAALWPELFSMEMWGGATFDVAYRFLKEDPWKRLEDLRKEVPNTLFQMLLRSSNAVGYTNYPDNVIKEFVKQSAQSGIDVFRIFDSLNWVKGMTLAIDAVRDTGKVAEAAICYTGDILDKNRTKYDLAYYTSMAKELEAAGAHILGIKDMAGLLKPQAAYELVSALKETIDIPVHLHTHDTSGNGIYMYAKAVEAGVDIIDVAVSSMAGLTSQPSASGFYHAMEGNDRRPEMNVQGVELLSQYWESVRKYYSEFESGMKSPHTEIYEHEMPGGQYSNLQQQAKGVGLGDRWNEVKEMYRRVNDMFGDIVKVTPSSKVVGDMALYMVQNNLTEKDVYEKGESLDFPDSVVELFKGNIGQPHGGFPEKLQKLILKGQEPITVRPGELLEPVSFEAIKQEFKEQHNLEISDQDAVAYALYPKVFTDYVKTTESYGDISVLDTPTFFYGMTLGEEIEVEIERGKTLIVKLISIGEPQPDATRVVYFELNGQPREVVIKDESIKSSVQERLKADRTNPSHIAASMPGTVIKVLAEAGTKVNKGDHLMINEAMKMETTVQAPFSGTIKQVHVKNGEPIQTGDLLLEIEKA
For B1, the binding [1] was “no binding” and the binding [2] was “binds”.
